Values joined by “and” are separate entries in the source; they are usually repeats but may differ in a detail not shown here. Equal values may be shown once. The list shows a part of the results. This data set is noisy: repeats of one test often differ as much as different tests do.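 HEK293T cells were given each compound shortly before transfection with a reporter in which red mCherry is followed by the SARS-CoV-2 frameshift element and then GFP in the −1 frame, so GFP appears only after frameshifting.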
Key:
[1] = system: SARS-CoV-2 -1 PRF reporter mCherry-FSE-GFP(-1); assay: mCherry (red) intensity as percent of control; higher = higher upstream reporter expression; conditions: 10 µM; 24 h; HEK293T
[2] = system: SARS-CoV-2 -1 PRF reporter mCherry-FSE-GFP(-1); assay: percent effect, decrease of GFP/mCherry ratio (-1 PRF reporter) relative to controls; higher = stronger frameshift inhibition; conditions: 10 µM; 24 h; HEK293T

SMILES | mCherry [1] | percent effect [2]
CC(CCc1ccc(O)cc1)NCCc1ccc(O)c(O)c1 (centres undefined) | 89.6% and 84.3% | -4.38% and -0.617%
Nc1ccc(/N=N/c2ccccc2)c(N)n1 | 108% | -2.72%
NC(=O)C[C@H](N)C(=O)O [L-Asparagine] | 25.5% | -5.19%
Cc1cc(Nc2ncc(Cl)c(Nc3ccccc3S(=O)(=O)C(C)C)n2)c(OC(C)C)cc1C1CCNCC1 [Ceritinib] | 80.1% | 0.117%
CCCCn1c(=O)c2c(ncn2CC(C)=O)n(CCCC)c1=O [denbufylline] | 79.3% | -0.497%
CC(=O)OC[C@H]1O[C@@H](n2ncc(=O)[nH]c2=O)[C@H](OC(C)=O)[C@@H]1OC(C)=O [azaribine] | 50.9% | -3.28%
O=c1[nH]c2ccccc2c(=O)n1CCCN1CCN(c2cccc(Cl)c2)CC1 [cloperidone] | 103% | -5.31%
CCN(CC)CCCC(C)Nc1cc(OC)cc2cccnc12 (centres undefined) [pamaquine] | 76.4% | -1.11%
Cn1cnc([N+](=O)[O-])c1Sc1ncnc2[nH]cnc12 [Azathioprine] | 111% and 88.4% | -0.343% and -0.221%
CC(C)=CCNc1ncnc2c1ncn2[C@@H]1O[C@H](CO)[C@@H](O)[C@H]1O [riboprine] | 78.5% | -4.05%
O=C([O-])c1ccccc1[O-].[Bi+3].[OH-] | 68.6% | -2.31%
CC(C)Cc1ccc(C(C)C(=O)O)cc1 (centres undefined) [ibuprofen] | 101% and 114% | 3.47% and -6.37%
CCCCOc1ccc(C(=O)CCN2CCCCC2)cc1 [dyclonine] | 84% | -0.496%
CCCc1cc(C(N)=S)ccn1 [protionamide] | 88% and 111% | -1.79% and -13.2%
CCOC(=O)C1=C[C@]2(CC)CCCN3CCc4c(n1c1ccccc41)[C@@H]32 [Vinpocetine] | 86% | -4.42%
COc1cc2c(cc1OC)[C@@H](Cc1cc(OC)c(OC)c(OC)c1)[N+](C)(CCCOC(=O)CC/C=C/CCC(=O)OCCC[N+]1(C)CCc3cc(OC)c(OC)cc3[C@H]1Cc1cc(OC)c(OC)c(OC)c1)CC2 (some centres undefined) [Mivacron] | 98.3% | -1.43%
NC[C@H](O)c1ccc(O)c(O)c1 [Norepinephrine] | 77.8% | 0.339%
COc1ccc(C(=O)c2ccccc2)c(O)c1 [oxybenzone] | 91.4% | -1.02%
C[C@]12C=CC(=O)C=C1CC[C@H]1[C@@H]3CC[C@](O)(C(=O)CO)[C@@]3(C)C[C@H](Cl)[C@@]12Cl [dichlorisone] | 77.2% | 3.15%
CC(=O)N(CC(O)CO)c1c(I)c(C(=O)NCC(O)CO)c(I)c(C(=O)NCC(O)CO)c1I (centres undefined) | 104% | -0.306%
CCOC(=O)NNc1nncc2ccccc12 | 87.4% | -1.93%
COc1ccc2c(c1)C(O)(CCCN(C)C)c1ccccc1S2 (centres undefined) [meprotixol] | 75.5% | -2.73%
N[C@@H](CC(=O)N1CCn2c(nnc2C(F)(F)F)C1)Cc1cc(F)c(F)cc1F [sitagliptin] | 103% | 1.1%
C#C[C@]1(OC(C)=O)CC[C@H]2[C@@H]3CCC4=CC(=NO)CC[C@@H]4[C@H]3CC[C@@]21CC (mixture of isomers) [norgestimate] | 107% | -2.58%
CC12CCC(CC1)C(C)(C)O2 | 92.6% | -0.669%
NC12CC3CC(CC(C3)C1)C2 | 78.5% | -2.01%

SMILES | mCherry [1] | percent effect [2]
O=C(c1cc(O)c(O)c(O)c1)c1ccc(O)c(O)c1O [exifone] | 86.9% | -28.5%
CN(C)C(=N)NC(=N)N [Metformin] | 99.8% | -1.58%
Nc1nc(=O)c2ncn([C@@H]3C[C@H](CO)[C@H]3CO)c2[nH]1 [lobucavir] | 59.2% | 3.21%
N=c1nc(N2CCCCC2)cc(N)n1O [minoxidil] | 80.4% and 81.7% | -4.72% and 2.8%
COc1cc([S+](C)[O-])ccc1-c1nc2cccnc2[nH]1 (centres undefined) [sulmazole] | 103% | 0.558%
CN[C@@H]1[C@H](O)[C@H](NC)[C@H]2O[C@@]3(O)C(=O)C[C@@H](C)O[C@H]3O[C@@H]2[C@H]1O [Spectinomycin·2HCl] | 108% | 2.6%
CN1C(C(=O)Nc2nccs2)=C(O)c2ccccc2S1(=O)=O [sudoxicam] | 70% | -1.26%
CCN(CC)CCNC(=O)c1ccc(NC(C)=O)cc1 [acecainide] | 95.2% | -4.69%
O=CNc1ncc([N+](=O)[O-])s1 [forminitrazole] | 95.5% | -1.81%
CC(C(=O)O)c1ccc2c(c1)Cc1cccnc1O2 (centres undefined) [pranoprofen] | 128% and 135% | 4.53% and 4.09%
C=C[C@]1(C)C[C@@H](OC(=O)CS[C@@H]2C[C@H]3CC[C@@H](C2)N3C)[C@]2(C)[C@H](C)CC[C@]3(CCC(=O)[C@H]32)[C@@H](C)[C@@H]1O [retapamulin] | 112% | -9.82%
CC(C[N+](C)(C)C)OC(N)=O (centres undefined) | 95.1% | 2.95%
N[C@@H](Cc1ccc(O)cc1)C(=O)O | 119% | 1.15%
CC[C@H](C)C(=O)O[C@H]1CCC=C2C=C[C@H](C)[C@H](CC[C@@H]3C[C@@H](O)CC(=O)O3)[C@H]21 [mevastatin] | 83.7% and 68.2% | -3.41% and -8.72%
O=C(O)Cc1cc(I)c(Oc2ccc(O)c(I)c2)c(I)c1 [tiratricol] | 104% | 0.111%
C[C@H](CCC(=O)O)[C@H]1CC[C@H]2[C@@H]3C(=O)C[C@@H]4CC(=O)CC[C@]4(C)[C@H]3CC(=O)[C@]12C [dehydrocholate sodium] | 90.4% | -1.57%
O=C(O)c1cc2cc(Cc3cccnc3)ccc2o1 [furegrelate] | 117% | -4.49%
NC[C@H]1CC[C@H](C(=O)O)CC1 | 89.3% | -1.22%
OCCc1ccccc1 | 108% | -2.87%
CN(C)CC[C@@H](c1ccc(Cl)cc1)c1ccccn1 [dexchlorpheniramine] | 82% | -9.81%
CC1=CC(=O)NS(=O)(=O)O1 [acesulfame] | 107% | 0.167%
O=[N+]([O-])c1c(Cl)cccc1-c1c[nH]cc1Cl [pyrrolnitrin] | 94.3% | -3.82%
CS(=O)(=O)OCCCCOS(C)(=O)=O [busulfan] | 92.8% | -3.89%
COc1ccc(-c2nc(C(F)(F)F)[nH]c2-c2ccc(OC)cc2)cc1 [flumizole] | 103% | -4.93%
N[C@H]1C(O)O[C@H](CO)[C@@H](O)[C@@H]1O (some centres undefined) | 108% and 104% | -2.24% and -4.91%
O=C(/C=C/c1ccc(CN(CCO)CCc2c[nH]c3ccccc23)cc1)NO [dacinostat] | 17.5% | -7.57%

Some of the entries so far, tab-delimited.
SMILES	mCherry [1]	percent effect [2]
Nc1ccc(/N=N/c2ccccc2)c(N)n1	108%	-2.72%
NC(=O)C[C@H](N)C(=O)O [L-Asparagine]	25.5%	-5.19%
Cc1cc(Nc2ncc(Cl)c(Nc3ccccc3S(=O)(=O)C(C)C)n2)c(OC(C)C)cc1C1CCNCC1 [Ceritinib]	80.1%	0.117%
CCCCn1c(=O)c2c(ncn2CC(C)=O)n(CCCC)c1=O [denbufylline]	79.3%	-0.497%

Next records follow:

SMILES | mCherry [1] | percent effect [2]
Cc1c(C)c2c(c(C)c1O)CCC(C)(CCCC(C)CCCC(C)CCCC(C)C)O2 (centres undefined) [Vitamin E] | 93.6% | -1.99%
C[C@H](CCC(=O)O)[C@H]1CC[C@H]2[C@@H]3CC[C@@H]4C[C@H](O)CC[C@]4(C)[C@H]3C[C@H](O)[C@]12C [deoxycholic acid] | 80.3% | 2.73%
O=C(CCCN1CCC(O)(c2ccc(Cl)cc2)CC1)c1ccc(F)cc1 [haloperidol] | 94.5% and 105% | -4.31% and -1.61%
O=c1cc[nH]c(=S)[nH]1 | 98.8% | -4.79%
Clc1ccc(C(Cn2ccnc2)OCc2c(Cl)cccc2Cl)c(Cl)c1 (centres undefined) [isoconazole] | 85.4% | 0.0406%
Cc1nc(NS(=O)(=O)c2ccc(N)cc2)oc1C [sulfamoxole] | 85% | -1.57%
COc1cc(C(=O)N2CCOCC2)cc(OC)c1OC [trimetozine] | 99.8% | -1.89%
NNCCc1ccccc1 [phenelzine] | 81.1% | 6.09%
CC(=O)O[C@H]1C(=O)[C@@]2(C)[C@H]([C@H](OC(=O)c3ccccc3)[C@]3(O)C[C@H](OC(=O)[C@H](O)[C@@H](NC(=O)c4ccccc4)c4ccccc4)C(C)=C1C3(C)C)[C@]1(OC(C)=O)CO[C@@H]1C[C@@H]2O [Taxol] | 299% | -13.1%
Cc1cccc(C)c1NC(=O)CN1CCN(CCCC(c2ccc(F)cc2)c2ccc(F)cc2)CC1 [lidoflazine] | 36.6% | -10.2%
CC(C)c1nc(N(C)S(C)(=O)=O)nc(-c2ccc(F)cc2)c1/C=C/[C@@H](O)C[C@@H](O)CC(=O)O | 108% | -0.936%
CC1=C(/C=C/C(C)=C/C=C/C(C)=C/C(=O)Nc2ccc(O)cc2)C(C)(C)CCC1 [Fenretinide] | 315% | -19%
N=C(N)c1ccc(CNC(=O)[C@@H]2CCN2C(=O)[C@H](NCC(=O)O)C2CCCCC2)cc1 [melagatran] | 73.4% | 4.53%
O=C(O)/C=C/C(=O)O | 123% | 2.47%
CN1[C@@H]2CC[C@H]1C[C@@H](OC(=O)c1c[nH]c3ccccc13)C2 [tropisetron] | 91.6% | -3.75%
CC(=O)[C@H]1CC[C@H]2[C@@H]3CC=C4C[C@@H](OC(=O)CCC(=O)O)CC[C@]4(C)[C@H]3CC[C@]12C | 129% | 1.03%
CCOc1cc(CC(=O)N[C@@H](CC(C)C)c2ccccc2N2CCCCC2)ccc1C(=O)O [repaglinide] | 99.5% | -1.46%
CCN(CC)CCOCCOC(=O)C(CC)(CC)c1ccccc1 | 96.2% | 2.67%
Nc1nc(O)c2ncn(CCC(CO)CO)c2n1 [Penciclovir] | 50% | -7.16%
CC1(C)OC(=O)Nc2ccc(Br)cc21 [brofoxine] | 115% | -4.42%
CC(C)N1CCN(c2ccc(OCC3COC(Cn4cncn4)(c4ccc(Cl)cc4Cl)O3)cc2)CC1 (centres undefined) [terconazole] | 107% | -1.16%
C=CCOC(Cn1ccnc1)c1ccc(Cl)cc1Cl (centres undefined) [enilconazole] | 93.4% | 1.38%
CC(C)OC(=O)CCC/C=C\C[C@@H]1[C@@H](CC[C@@H](O)CCc2ccccc2)[C@H](O)C[C@@H]1O [Latanoprost] | 86.6% and 89% | -2.71% and -6.04%
CC12CC3CC(C)(C1)CC(N)(C3)C2 [memantine] | 105% and 103% | -0.269% and 1.08%
CC(=O)Oc1cccc(C(=O)O)c1OC(C)=O [dipyrocetyl] | 121% | 4.25%
